Data taken from patent publication US5432260A, “High affinity mannose receptor ligands” (Washington University, priority 1991, dated 1995).
Structures were worked out from names or drawings and are uncertain.

Chains of the proteins cited; added tags and fusions are not shown. Residues count along the entry.
UniProt P22897, 19-1456 limits assumed: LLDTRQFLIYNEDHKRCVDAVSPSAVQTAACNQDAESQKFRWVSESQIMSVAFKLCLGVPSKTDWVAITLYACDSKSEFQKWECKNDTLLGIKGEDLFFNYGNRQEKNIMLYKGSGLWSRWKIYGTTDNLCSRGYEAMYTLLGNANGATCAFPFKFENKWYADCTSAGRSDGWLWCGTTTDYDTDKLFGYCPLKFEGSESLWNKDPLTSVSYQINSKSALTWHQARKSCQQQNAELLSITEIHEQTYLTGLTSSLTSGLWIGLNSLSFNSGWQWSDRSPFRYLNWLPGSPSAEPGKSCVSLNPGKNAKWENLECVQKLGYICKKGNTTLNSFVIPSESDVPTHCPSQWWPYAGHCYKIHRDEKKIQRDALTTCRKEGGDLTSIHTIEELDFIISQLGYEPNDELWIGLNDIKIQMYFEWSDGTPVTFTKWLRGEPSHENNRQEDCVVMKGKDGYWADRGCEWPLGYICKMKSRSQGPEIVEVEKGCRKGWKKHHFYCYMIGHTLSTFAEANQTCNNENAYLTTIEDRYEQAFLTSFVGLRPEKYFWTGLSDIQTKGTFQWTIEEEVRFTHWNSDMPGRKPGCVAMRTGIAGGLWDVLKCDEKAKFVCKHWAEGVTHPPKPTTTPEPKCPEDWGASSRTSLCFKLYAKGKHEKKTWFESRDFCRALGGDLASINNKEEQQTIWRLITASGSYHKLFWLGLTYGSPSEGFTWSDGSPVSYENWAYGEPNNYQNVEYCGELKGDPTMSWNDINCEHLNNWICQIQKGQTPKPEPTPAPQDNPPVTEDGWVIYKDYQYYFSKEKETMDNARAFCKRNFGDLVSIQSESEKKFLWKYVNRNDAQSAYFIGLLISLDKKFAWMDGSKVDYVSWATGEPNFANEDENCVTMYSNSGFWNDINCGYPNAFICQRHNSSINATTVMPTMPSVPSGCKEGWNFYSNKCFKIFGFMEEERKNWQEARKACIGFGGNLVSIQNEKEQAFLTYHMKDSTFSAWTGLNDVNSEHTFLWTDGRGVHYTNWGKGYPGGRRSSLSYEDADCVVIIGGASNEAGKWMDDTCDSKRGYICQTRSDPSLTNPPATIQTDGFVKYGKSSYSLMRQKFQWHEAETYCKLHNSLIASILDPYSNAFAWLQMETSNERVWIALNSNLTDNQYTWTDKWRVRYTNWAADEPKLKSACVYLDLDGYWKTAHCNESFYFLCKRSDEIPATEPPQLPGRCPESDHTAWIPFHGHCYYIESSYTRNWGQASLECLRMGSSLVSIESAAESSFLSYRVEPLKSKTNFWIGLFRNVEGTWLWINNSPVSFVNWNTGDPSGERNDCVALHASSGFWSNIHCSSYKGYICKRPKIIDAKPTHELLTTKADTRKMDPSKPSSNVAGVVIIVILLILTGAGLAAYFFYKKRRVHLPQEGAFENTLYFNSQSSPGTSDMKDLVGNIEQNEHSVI

Molecular target: purified mannose receptor (Homo sapiens, UniProt P22897)
Assay: Competition of 125I-mannose-BSA binding to isolated mannose receptor on beads
Conditions: read-out: IC50 (concentration effecting 50% inhibition of 125I-mannose-BSA binding to mannose receptor); 125I-mannose-BSA 2 nM, 37° C., 15 minutes
Description: The assay measures the ability of the test compound to inhibit the binding of ^125 I-mannose-BSA, prepared as described, to isolated mannose receptor. To prepare solid supported receptor protein A-sepharose (IgG-SORB) is incubated with rabbit anti-human mannose receptor antiserum for 20 minutes at room temperature. The beads are then washed by sedimentation 3 times in Tris-buffered saline containing 1% Triton X-100, 1% BSA and 15 mM CaCl2 (assay buffer). The beads are then suspended in an assay buffer and purified mannose receptor (Lennartz, M. R. et al., J Biol Chem (1987) 262:9942-9944 (supra)) is added, followed by incubation for 30 minutes at 37° C. The beads are washed again three times to remove unbound receptor.
In the assay, the receptor-linked beads are resuspended in a total volume of 100 μL assay buffer containing 0.1 μCi ^125 I-mannose-BSA (2 nM) prepared according to (Stahl, P. et al., Cell (1980) (supra)) with and without test compound. […] The cpm of ^125 I-mannose-BSA remaining in the […] is determined, and the percent inhibition of test compound at various concentrations calculated. […] Nonspecific binding of ligand to beads is determined by adding excess yeast mannan to parallel assays and accounted for in the calculations. […]

OC[C@H]1O[C@H](O[C@H]2[C@H](O)[C@H](O)[C@@H](O[C@H]3[C@H](O)[C@H](O)[C@@H](O[C@H]4[C@H](O)[C@H](O)[C@@H](O[C@H]5[C@H](O)[C@H](O)[C@@H](O[C@H]6[C@H](O)[C@H](O)[C@@H](O[C@H]7[C@H](O)[C@H](O)[C@@H](O[C@H]8[C@H](O)[C@H](O)[C@@H](O[C@H]9[C@H](O)[C@H](O)[C@@H](O[C@H]%10[C@H](O)[C@H](O)[C@@H](O[C@H]%11[C@H](O)[C@H](O)[C@@H](O[C@H]%12[C@H](O)[C@H](O)[C@@H](O[C@H]%13[C@H](O)[C@H](O)C(O)O[C@@H]%13CO)O[C@@H]%12CO)O[C@@H]%11CO)O[C@@H]%10CO)O[C@@H]9CO)O[C@@H]8CO)O[C@@H]7CO)O[C@@H]6CO)O[C@@H]5CO)O[C@@H]4CO)O[C@@H]3CO)O[C@@H]2CO)[C@@H](O)[C@@H](O)[C@@H]1O (stereo partly shown) was tested, and the IC50 was 10 µM.
